PubChem BioAssay AID1053208 – Peter MacCallum Cancer Centre – 2014
Assay: 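Synthetic lethal interactions between gene loss and doxorubicin in osteosarcoma cells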 (primary screen). Cell system: mouse osteosarcoma cells, early-passage culture from an engineered mouse model of fibroblastic bone tumour. Knock-down reagent: siRNA pool against mouse genes, 40 nM. Time to read-out: about 120 h (48 h before drug, then 72 h with drug). Challenge: doxorubicin 100 nM for 72 h, roughly 30-40% inhibitory dose. Read-out: 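Luminescent ATP signal taken as viability with or without 100 nM doxorubicin for 72 h; mean of two wells set against non-targeting siRNA and turned into robust z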. Reading the numbers: viability z-score with doxorubicin: higher = more viable cells under doxorubicin; viability z-score without drug: higher = more viable cells with knock-down alone. Hit rule: 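Called active if knock-down leaves viability unchanged without drug (z within -2 to 2) but lowers it with doxorubicin (z at or under -2)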.
The whole screen tested about 17,000 reagents; below is a random part of them. Of all reagents, 788 (4.7%) were called active. 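Calls rest on z-score classes alone; an extra cut-off of viability at most 70% of control was not applied to them.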 Unmarked entries are inactive. Further read-outs or replicates are left out here.

Which result is listed for Mrps12?
combined z-score class: low cell count with and without drug; viability z-score with doxorubicin: -2.25; viability z-score without drug: -2.53

What is on record for Gnptg?
combined z-score class: no change with or without drug; viability z-score with doxorubicin: 0; viability z-score without drug: -0.51

How did the screen score Rhd?
combined z-score class: no change with or without drug; viability z-score with doxorubicin: -0.22; viability z-score without drug: 0.34

How did the screen score Kash5?
combined z-score class: no change with or without drug; viability z-score with doxorubicin: -0.11; viability z-score without drug: -0.17

How did the screen score Rtn2?
combined z-score class: no change with or without drug; viability z-score with doxorubicin: 1.8; viability z-score without drug: 1.85

With Pin1, what does the deposit list?
combined z-score class: no change with or without drug; viability z-score with doxorubicin: -0.45; viability z-score without drug: -0.17

With Sfxn4, what was measured?
combined z-score class: no change with or without drug; viability z-score with doxorubicin: 0.22; viability z-score without drug: -0.51

Which result is listed for Rpp25?
combined z-score class: no change with or without drug; viability z-score with doxorubicin: 0.9; viability z-score without drug: -0.84

What did the screen give for Rhox9?
combined z-score class: no change with or without drug; viability z-score with doxorubicin: -0.22; viability z-score without drug: 0.51

Which result is listed for Fcer2a?
combined z-score class: no change with or without drug; viability z-score with doxorubicin: -0.67; viability z-score without drug: 0

With F13a1, what does the deposit list?
combined z-score class: no change with or without drug; viability z-score with doxorubicin: 0.22; viability z-score without drug: 0.17

For Glmn, what does the deposit list?
combined z-score class: no change with or without drug; viability z-score with doxorubicin: 0.56; viability z-score without drug: 1.69

A few values from the list:
Rpp25, viability z-score without drug → -0.84
Glmn, combined z-score class = no change with or without drug
